# Experimental data reported in the supplement of paper PMC8728848.
# Some of the results follow.
# Legend:
# Experiment in all cases: glycan array binding signal (z-score within array); higher = stronger binding
# Conditions in all cases: glycan notation: IUPAC condensed, linker removed; mutation: D21K
# [1] = target: GlcNAc(b1-3)Gal(b1-4)GlcNAc(b1-3)Gal(b1-4)GlcNAc(b1-3)Gal(b1-4)GlcNAc(b1-2)Man(a1-3)[GlcNAc(b1-3)Gal(b1-4)GlcNAc(b1-3)Gal(b1-4)GlcNAc(b1-3)Gal(b1-4)GlcNAc(b1-2)Man(a1-6)]Man(b1-4)GlcNAc(b1-4)[Fuc(a1-6)]GlcNAc
# Summary of the method: (§1)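 Glycan array binding is given as a within-array Z-score, which can be read as non-binding when negative. The arrays, 3228 of them, came from the Consortium for Functional Glycomics database and were retained only where the protein sequence was available. Z-scores were averaged across arrays of the same protein sequence at different concentrations or buffers and across linkers.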
# [2] = target: GlcNAc(b1-3)Gal(b1-4)GlcNAc(b1-3)Gal(b1-4)GlcNAc(b1-3)Gal(b1-4)GlcNAc(b1-2)[GlcNAc(b1-3)Gal(b1-4)GlcNAc(b1-3)Gal(b1-4)GlcNAc(b1-3)Gal(b1-4)GlcNAc(b1-6)]Man(a1-6)[GlcNAc(b1-3)Gal(b1-4)GlcNAc(b1-3)Gal(b1-4)GlcNAc(b1-3)Gal(b1-4)GlcNAc(b1-2)Man(a1-3)]Man(b1-4)GlcNAc(b1-4)[Fuc(a1-6)]GlcNAc
# Summary of the method: as §1
# [3] = target: GlcNAc(b1-3)Gal(b1-4)GlcNAc(b1-3)Gal(b1-4)GlcNAc(b1-3)Gal(b1-4)GlcNAc(b1-3)Gal(b1-4)GlcNAc(b1-2)Man(a1-3)[GlcNAc(b1-3)Gal(b1-4)GlcNAc(b1-3)Gal(b1-4)GlcNAc(b1-3)Gal(b1-4)GlcNAc(b1-3)Gal(b1-4)GlcNAc(b1-2)Man(a1-6)]Man(b1-4)GlcNAc(b1-4)GlcNAc
# Summary of the method: as §1
# [4] = target: GlcNAc(b1-3)Gal(b1-4)GlcNAc(b1-3)Gal(b1-4)GlcNAc(b1-3)Gal(b1-4)GlcNAc(b1-3)Gal(b1-4)GlcNAc(b1-2)Man(a1-3)[GlcNAc(b1-3)Gal(b1-4)GlcNAc(b1-3)Gal(b1-4)GlcNAc(b1-3)Gal(b1-4)GlcNAc(b1-3)Gal(b1-4)GlcNAc(b1-2)Man(a1-6)]Man(b1-4)GlcNAc(b1-4)[Fuc(a1-6)]GlcNAc
# Summary of the method: as §1
# [5] = target: GlcNAc(b1-3)Gal(b1-4)GlcNAc(b1-3)Gal(b1-4)GlcNAc(b1-3)Gal(b1-4)GlcNAc(b1-3)Gal(b1-4)GlcNAc(b1-2)[GlcNAc(b1-3)Gal(b1-4)GlcNAc(b1-3)Gal(b1-4)GlcNAc(b1-3)Gal(b1-4)GlcNAc(b1-3)Gal(b1-4)GlcNAc(b1-6)]Man(a1-6)[GlcNAc(b1-3)Gal(b1-4)GlcNAc(b1-3)Gal(b1-4)GlcNAc(b1-3)Gal(b1-4)GlcNAc(b1-3)Gal(b1-4)GlcNAc(b1-2)Man(a1-3)]Man(b1-4)GlcNAc(b1-4)[Fuc(a1-6)]GlcNAc
# Summary of the method: as §1
# [6] = target: GlcNAc(b1-3)Gal(b1-4)GlcNAc(b1-3)Gal(b1-4)GlcNAc(b1-3)GalNAc
# Summary of the method: as §1
# [7] = target: GlcNAc(b1-3)Gal(b1-4)GlcNAc(b1-3)GalNAc
# Summary of the method: as §1
# [8] = target: GlcNAc(b1-3)Gal(b1-4)GlcNAc(b1-3)[GlcNAc(b1-3)Gal(b1-4)GlcNAc(b1-3)]GalNAc
# Summary of the method: as §1
# [9] = target: GlcNAc(b1-3)Gal(b1-4)GlcNAc(b1-6)[Gal(b1-3)]GalNAc
# Summary of the method: as §1
# [10] = target: GlcNAc(b1-3)Gal(b1-4)GlcNAc(b1-6)[GlcNAc(b1-3)Gal(b1-3)]GalNAc
# Summary of the method: as §1
# [11] = target: GlcNAc(b1-3)Gal(b1-4)GlcNAc(b1-6)[GlcNAc(b1-3)]Gal(b1-4)GlcNAc
# Summary of the method: as §1
# GlcNAc(b1-3)GalNAc = target: GlcNAc(b1-3)GalNAc
# Summary of the method: as §1
# GlcNAc(b1-3)Man = target: GlcNAc(b1-3)Man
# Summary of the method: as §1
# [12] = target: GlcNAc(b1-3)[GlcNAc(b1-4)][GlcNAc(b1-6)]GlcNAc
# Summary of the method: as §1
# [13] = target: GlcNAc(b1-3)[GlcNAc(b1-6)]Gal(b1-4)GlcNAc
# Summary of the method: as §1
# [14] = target: GlcNAc(b1-3)[GlcNAc(b1-6)]GalNAc
# Summary of the method: as §1
# [15] = target: GlcNAc(b1-4)Gal(b1-4)GlcNAc
# Summary of the method: as §1
# GlcNAc(b1-4)GlcNAc = target: GlcNAc(b1-4)GlcNAc
# Summary of the method: as §1
# [16] = target: GlcNAc(b1-4)GlcNAc(b1-4)GlcNAc
# Summary of the method: as §1
# [17] = target: GlcNAc(b1-4)GlcNAc(b1-4)GlcNAc(b1-4)GlcNAc(b1-4)GlcNAc
# Summary of the method: as §1
# [18] = target: GlcNAc(b1-4)GlcNAc(b1-4)GlcNAc(b1-4)GlcNAc(b1-4)GlcNAc(b1-4)GlcNAc
# Summary of the method: as §1
# [19] = target: GlcNAc(b1-4)[GlcNAc(b1-6)]GalNAc
# Summary of the method: as §1
# [20] = target: GlcNAc(b1-6)Gal(b1-4)GlcNAc
# Summary of the method: as §1
# GlcNAc(b1-6)GalNAc = target: GlcNAc(b1-6)GalNAc
# Summary of the method: as §1
# [21] = target: GlcNAc6S(b1-3)Gal(b1-4)GlcNAc
# Summary of the method: as §1
# Kdn(a2-3)Gal(b1-3)GalNAc = target: Kdn(a2-3)Gal(b1-3)GalNAc
# Summary of the method: as §1
binder,measurement,setting,value
KILRGVCKKIMRTFLRRISKKILTGKK [C7A (Sus scrofa)],glycan array binding signal (z-score),[1],1.49
same,glycan array binding signal (z-score),[2],2.39
same,glycan array binding signal (z-score),[3],1.54
same,glycan array binding signal (z-score),[4],-0.881
same,glycan array binding signal (z-score),[5],2.49
same,glycan array binding signal (z-score),[6],0.667
same,glycan array binding signal (z-score),[7],1.01
same,glycan array binding signal (z-score),[8],1.12
same,glycan array binding signal (z-score),[9],1.57
same,glycan array binding signal (z-score),[10],-0.629
same,glycan array binding signal (z-score),[11],-0.948
same,glycan array binding signal (z-score),GlcNAc(b1-3)GalNAc,-2.16
same,glycan array binding signal (z-score),GlcNAc(b1-3)Man,-0.082
same,glycan array binding signal (z-score),[12],-0.24
same,glycan array binding signal (z-score),[13],0.238
same,glycan array binding signal (z-score),[14],-0.602
same,glycan array binding signal (z-score),[15],1.54
same,glycan array binding signal (z-score),GlcNAc(b1-4)GlcNAc,-0.608
same,glycan array binding signal (z-score),[16],-0.068
same,glycan array binding signal (z-score),[17],0.412
same,glycan array binding signal (z-score),[18],0.039
same,glycan array binding signal (z-score),[19],-1.04
same,glycan array binding signal (z-score),[20],-0.292
same,glycan array binding signal (z-score),GlcNAc(b1-6)GalNAc,-0.216
same,glycan array binding signal (z-score),[21],0.682
same,glycan array binding signal (z-score),Kdn(a2-3)Gal(b1-3)GalNAc,1.21

# Some of the entries so far, with tabs:
binder	measurement	setting	value
KILRGVCKKIMRTFLRRISKKILTGKK [C7A (Sus scrofa)]	glycan array binding signal (z-score)	[6]	0.667
same	glycan array binding signal (z-score)	[9]	1.57
